From the supplement of paper PMC11006884
The targets with a hit were mostly taken out for another list; the other results follow. Single values of this set are uncertain. The entries are a selection whose mix differs from that of the whole data set.

Sequences of proteins named here, by UniProt entry; tags and fusion partners are left off. A change or cut given only in a name is not applied to a line headed by its entry.
UniProt Q12931: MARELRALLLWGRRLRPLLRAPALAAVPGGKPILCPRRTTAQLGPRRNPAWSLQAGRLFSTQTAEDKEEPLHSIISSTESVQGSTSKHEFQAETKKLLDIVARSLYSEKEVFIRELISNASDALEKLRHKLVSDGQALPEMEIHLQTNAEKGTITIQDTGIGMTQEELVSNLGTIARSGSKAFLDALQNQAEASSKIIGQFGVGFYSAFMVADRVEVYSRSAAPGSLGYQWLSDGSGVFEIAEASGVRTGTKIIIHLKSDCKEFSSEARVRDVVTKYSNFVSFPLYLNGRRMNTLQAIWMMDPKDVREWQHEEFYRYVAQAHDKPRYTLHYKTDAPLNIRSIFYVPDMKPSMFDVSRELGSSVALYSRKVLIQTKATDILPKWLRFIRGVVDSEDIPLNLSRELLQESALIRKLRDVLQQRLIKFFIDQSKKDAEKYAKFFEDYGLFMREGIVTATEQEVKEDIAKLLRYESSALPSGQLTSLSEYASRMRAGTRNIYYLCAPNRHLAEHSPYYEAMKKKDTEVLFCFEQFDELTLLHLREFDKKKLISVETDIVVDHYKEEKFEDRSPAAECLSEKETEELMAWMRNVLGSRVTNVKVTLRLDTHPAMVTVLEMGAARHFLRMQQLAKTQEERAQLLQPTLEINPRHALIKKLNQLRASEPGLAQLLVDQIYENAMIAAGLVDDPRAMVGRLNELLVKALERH
UniProt Q07820, whole entry: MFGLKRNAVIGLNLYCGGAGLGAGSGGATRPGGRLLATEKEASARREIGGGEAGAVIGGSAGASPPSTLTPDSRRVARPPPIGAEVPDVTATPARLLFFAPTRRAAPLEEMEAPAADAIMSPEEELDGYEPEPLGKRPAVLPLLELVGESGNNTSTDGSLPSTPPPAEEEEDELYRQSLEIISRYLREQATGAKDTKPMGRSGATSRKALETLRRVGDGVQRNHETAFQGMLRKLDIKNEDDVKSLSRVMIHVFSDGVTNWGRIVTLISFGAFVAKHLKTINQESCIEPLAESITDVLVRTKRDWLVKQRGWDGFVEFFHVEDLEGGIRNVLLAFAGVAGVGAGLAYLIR
UniProt Q02930: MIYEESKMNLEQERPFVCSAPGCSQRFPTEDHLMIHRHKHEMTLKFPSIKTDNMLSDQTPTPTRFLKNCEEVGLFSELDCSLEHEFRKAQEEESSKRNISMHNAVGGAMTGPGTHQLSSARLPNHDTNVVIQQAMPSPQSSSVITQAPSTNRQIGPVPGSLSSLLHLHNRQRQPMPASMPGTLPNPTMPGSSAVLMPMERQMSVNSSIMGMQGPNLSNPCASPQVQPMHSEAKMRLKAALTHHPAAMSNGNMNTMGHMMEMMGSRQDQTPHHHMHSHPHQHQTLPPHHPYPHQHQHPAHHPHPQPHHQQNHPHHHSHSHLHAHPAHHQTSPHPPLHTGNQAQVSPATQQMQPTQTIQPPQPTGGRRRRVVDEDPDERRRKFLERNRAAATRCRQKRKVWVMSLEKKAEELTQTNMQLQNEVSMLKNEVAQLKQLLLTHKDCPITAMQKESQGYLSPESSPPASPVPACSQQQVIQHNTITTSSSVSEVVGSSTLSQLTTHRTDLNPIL
UniProt Q12888: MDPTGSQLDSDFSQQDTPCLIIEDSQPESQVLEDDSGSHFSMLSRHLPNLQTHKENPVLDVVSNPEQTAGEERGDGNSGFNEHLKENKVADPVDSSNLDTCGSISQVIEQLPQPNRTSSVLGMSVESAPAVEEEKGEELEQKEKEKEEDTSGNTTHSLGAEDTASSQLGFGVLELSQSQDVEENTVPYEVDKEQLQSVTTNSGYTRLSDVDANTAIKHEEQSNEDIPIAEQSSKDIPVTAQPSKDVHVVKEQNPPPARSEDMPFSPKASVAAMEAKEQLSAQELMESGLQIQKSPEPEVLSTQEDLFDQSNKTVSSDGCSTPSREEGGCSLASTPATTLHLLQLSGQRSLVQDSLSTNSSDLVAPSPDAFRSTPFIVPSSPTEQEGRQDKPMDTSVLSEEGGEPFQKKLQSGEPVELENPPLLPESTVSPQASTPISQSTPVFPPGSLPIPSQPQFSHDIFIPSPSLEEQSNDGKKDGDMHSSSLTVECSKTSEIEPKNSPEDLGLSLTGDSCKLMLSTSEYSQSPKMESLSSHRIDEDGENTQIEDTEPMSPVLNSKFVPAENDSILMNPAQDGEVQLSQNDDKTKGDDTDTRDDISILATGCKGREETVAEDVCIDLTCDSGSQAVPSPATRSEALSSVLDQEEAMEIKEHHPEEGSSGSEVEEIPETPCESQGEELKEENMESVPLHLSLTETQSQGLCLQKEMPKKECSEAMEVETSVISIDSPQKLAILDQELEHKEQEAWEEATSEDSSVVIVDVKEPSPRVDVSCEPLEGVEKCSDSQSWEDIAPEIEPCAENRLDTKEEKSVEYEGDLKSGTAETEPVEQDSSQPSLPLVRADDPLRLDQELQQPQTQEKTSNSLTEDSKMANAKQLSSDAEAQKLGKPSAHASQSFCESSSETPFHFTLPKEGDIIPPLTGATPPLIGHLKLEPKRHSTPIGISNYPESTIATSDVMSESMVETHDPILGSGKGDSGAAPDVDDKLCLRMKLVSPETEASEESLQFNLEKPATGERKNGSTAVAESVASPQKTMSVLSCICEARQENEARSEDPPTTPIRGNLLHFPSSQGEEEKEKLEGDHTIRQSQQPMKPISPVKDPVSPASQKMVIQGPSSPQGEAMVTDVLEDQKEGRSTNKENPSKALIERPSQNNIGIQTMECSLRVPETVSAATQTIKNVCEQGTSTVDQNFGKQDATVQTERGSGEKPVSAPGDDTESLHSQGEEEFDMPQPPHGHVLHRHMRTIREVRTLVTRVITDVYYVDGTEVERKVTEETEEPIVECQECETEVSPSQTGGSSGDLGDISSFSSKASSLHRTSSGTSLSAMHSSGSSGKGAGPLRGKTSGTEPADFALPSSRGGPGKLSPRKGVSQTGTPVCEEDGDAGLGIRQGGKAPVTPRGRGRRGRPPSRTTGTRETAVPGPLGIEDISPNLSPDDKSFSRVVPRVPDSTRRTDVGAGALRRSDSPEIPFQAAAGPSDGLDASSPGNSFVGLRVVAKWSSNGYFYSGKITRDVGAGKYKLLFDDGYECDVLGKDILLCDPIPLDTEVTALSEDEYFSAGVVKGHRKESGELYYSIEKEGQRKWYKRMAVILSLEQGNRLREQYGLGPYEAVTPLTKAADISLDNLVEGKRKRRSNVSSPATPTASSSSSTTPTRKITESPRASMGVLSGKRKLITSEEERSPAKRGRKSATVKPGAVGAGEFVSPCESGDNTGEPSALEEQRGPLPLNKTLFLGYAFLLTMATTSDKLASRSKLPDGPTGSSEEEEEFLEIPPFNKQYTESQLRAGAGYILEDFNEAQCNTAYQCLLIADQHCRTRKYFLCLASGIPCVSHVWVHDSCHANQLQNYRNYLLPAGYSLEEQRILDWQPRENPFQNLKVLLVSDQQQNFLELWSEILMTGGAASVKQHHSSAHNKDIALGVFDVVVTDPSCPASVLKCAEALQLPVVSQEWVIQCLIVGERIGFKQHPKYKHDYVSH
UniProt Q12905: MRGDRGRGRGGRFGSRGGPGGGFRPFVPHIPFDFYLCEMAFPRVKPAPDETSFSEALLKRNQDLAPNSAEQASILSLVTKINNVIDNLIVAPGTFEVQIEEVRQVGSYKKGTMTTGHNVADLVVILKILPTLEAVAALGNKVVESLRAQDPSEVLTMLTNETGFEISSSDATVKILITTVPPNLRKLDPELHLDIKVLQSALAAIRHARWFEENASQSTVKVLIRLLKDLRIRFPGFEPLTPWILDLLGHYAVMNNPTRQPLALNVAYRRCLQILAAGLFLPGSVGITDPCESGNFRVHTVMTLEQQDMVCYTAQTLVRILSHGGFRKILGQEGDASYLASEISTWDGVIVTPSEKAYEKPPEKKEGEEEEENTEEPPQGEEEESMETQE
UniProt Q12756: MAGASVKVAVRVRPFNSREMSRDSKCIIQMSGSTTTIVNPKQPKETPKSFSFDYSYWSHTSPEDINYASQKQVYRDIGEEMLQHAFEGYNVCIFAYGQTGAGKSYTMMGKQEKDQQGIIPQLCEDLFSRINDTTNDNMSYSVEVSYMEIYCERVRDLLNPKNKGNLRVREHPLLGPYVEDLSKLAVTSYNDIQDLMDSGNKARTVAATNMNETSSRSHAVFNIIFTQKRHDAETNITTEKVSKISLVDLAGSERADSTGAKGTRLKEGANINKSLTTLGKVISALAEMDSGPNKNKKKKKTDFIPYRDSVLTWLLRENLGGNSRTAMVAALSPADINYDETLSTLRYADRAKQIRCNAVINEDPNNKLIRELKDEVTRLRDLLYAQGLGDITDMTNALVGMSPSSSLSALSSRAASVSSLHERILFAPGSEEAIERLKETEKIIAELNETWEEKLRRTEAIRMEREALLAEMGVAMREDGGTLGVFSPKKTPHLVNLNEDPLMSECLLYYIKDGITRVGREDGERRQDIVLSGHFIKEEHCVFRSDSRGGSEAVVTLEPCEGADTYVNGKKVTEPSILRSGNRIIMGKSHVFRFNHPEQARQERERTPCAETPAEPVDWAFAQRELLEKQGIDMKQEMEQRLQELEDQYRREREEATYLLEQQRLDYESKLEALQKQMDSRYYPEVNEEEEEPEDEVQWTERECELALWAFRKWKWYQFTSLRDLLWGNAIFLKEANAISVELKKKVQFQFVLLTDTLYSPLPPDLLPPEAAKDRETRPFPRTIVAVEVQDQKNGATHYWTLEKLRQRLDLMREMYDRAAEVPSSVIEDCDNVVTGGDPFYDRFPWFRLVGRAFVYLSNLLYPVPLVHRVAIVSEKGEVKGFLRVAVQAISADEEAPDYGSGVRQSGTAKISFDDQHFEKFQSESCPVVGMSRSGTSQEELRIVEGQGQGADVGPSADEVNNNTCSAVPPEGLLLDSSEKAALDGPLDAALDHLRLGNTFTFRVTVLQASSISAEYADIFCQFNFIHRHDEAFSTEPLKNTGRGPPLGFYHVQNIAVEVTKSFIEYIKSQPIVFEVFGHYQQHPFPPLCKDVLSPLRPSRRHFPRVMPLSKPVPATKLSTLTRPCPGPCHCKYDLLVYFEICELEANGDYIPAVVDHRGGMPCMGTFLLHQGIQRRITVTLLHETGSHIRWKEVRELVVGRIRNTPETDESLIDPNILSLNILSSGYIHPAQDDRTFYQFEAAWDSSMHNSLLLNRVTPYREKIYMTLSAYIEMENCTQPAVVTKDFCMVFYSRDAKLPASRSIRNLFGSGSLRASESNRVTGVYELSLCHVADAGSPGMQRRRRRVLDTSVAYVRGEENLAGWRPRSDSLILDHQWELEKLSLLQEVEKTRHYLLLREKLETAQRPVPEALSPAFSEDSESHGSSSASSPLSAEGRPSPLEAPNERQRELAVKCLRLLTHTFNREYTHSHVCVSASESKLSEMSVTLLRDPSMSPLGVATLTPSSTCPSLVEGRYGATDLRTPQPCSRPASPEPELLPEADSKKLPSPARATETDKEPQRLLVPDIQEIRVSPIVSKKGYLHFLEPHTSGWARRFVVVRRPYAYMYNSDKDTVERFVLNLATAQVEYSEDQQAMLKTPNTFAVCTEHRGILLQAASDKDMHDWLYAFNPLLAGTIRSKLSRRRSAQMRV
UniProt Q13247: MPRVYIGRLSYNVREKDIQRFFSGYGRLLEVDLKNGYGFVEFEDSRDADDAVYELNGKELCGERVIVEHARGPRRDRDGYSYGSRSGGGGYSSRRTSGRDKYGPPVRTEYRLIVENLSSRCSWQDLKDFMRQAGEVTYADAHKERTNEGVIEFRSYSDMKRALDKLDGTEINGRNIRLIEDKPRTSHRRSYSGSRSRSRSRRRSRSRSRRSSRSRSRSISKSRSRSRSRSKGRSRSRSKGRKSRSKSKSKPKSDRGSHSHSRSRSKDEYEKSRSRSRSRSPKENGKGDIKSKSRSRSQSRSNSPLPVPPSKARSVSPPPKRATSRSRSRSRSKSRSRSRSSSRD
UniProt Q13148, whole entry, looked up: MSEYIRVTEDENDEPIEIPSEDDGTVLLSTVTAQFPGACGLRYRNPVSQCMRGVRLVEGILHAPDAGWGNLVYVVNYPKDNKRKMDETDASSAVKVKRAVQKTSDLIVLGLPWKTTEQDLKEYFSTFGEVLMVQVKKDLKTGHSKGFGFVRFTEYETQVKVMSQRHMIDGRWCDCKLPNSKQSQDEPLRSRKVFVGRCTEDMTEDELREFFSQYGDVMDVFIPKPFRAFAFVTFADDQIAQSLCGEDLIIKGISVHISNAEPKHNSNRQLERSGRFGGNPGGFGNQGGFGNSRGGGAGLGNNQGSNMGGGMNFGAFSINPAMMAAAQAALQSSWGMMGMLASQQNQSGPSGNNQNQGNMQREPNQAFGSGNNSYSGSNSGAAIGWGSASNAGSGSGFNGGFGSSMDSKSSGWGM

The targets below were run with COC(=O)/C=C/c1ccccc1 [methyl cinnamate] (assay: log2 ratio of iodoacetamide-alkyne labeling of the cysteine site, DMSO over compound (competition); higher = stronger covalent engagement of the cysteine by the compound, active = 1 or more). Conditions: 500 µM; treatment time 1 h; system: HEK293T cell lysate.
Outline: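 HEK293T lysate (2 mg/mL) was treated with DMSO or electrophile (500 µM, 1 h, ambient temperature), then iodoacetamide alkyne (1 h), clicked to sCIP-TMT reagents, pooled, trypsin-digested overnight at 37 °C, streptavidin-enriched and acid-eluted. Peptides were run on Orbitrap Eclipse LC-MS/MS with FAIMS and quantified in FragPipe. The log2 competition ratio per cysteine is mean control-channel over mean compound-channel reporter intensity. Duplicate channels and three replicates were used, and cysteines quantified in only one replicate were excluded.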

log2 ratio of iodoacetamide-alkyne labeling, inactive:
GFPT1 C55 (UniProt Q06210) 0.0635
TRAP1 C573 (UniProt Q12931) 0.01
MCL1 C16 (UniProt Q07820) 0.198
GPS1 C251 (UniProt Q13098) 0.44
UniProt Q02930_C80 0.593
TP53BP1 C772 (UniProt Q12888) -0.0907
LAMTOR4 C51 (UniProt Q0VGL1) 0.132
EIF4G1 C1516 (UniProt Q04637) -0.42
PTPN11 C318 (UniProt Q06124) 0.394
UniProt Q12905_C271 0.122
TP53BP1 C896 (UniProt Q12888) -0.0806
KIF1A C609 (UniProt Q12756) 0.17
CHD3 C1464 (UniProt Q12873) 0.189
FLII C46 (UniProt Q13045) 0.0684
TP53BP1 C101 (UniProt Q12888) -0.0218
ACACA C1230 (UniProt Q13085) 0.0583
NSUN2 C678 (UniProt Q08J23) 0.0493
UniProt Q02930_C69 0.593
STX5 C68 (UniProt Q13190) 0.223
UniProt Q13247_C121 0.166
TARDBP C50 (UniProt Q13148) 0.0628
AP1B1 C921 (UniProt Q10567) 0.277

A section taken from the entries so far:
log2 ratio of iodoacetamide-alkyne labeling, inactive:
GPS1 C251 (UniProt Q13098) 0.44
UniProt Q02930_C80 0.593
